Percent effect of library compounds

Chains of the proteins cited; added tags and fusions are not shown. Residues count along the entry.
UniProt A4I591, 1-473: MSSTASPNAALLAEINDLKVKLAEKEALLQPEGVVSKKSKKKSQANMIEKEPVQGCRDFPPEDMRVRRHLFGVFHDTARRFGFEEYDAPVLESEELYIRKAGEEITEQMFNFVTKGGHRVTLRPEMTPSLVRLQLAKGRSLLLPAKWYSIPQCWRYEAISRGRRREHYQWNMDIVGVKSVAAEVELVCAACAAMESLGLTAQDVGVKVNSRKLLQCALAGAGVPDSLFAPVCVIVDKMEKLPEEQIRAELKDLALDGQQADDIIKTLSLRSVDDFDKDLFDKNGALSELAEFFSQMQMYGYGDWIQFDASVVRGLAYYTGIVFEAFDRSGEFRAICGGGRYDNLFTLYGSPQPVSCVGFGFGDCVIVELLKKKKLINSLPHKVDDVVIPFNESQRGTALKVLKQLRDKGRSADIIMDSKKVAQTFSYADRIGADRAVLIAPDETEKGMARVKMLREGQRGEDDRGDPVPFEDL
UniProt I6X8D2, whole entry: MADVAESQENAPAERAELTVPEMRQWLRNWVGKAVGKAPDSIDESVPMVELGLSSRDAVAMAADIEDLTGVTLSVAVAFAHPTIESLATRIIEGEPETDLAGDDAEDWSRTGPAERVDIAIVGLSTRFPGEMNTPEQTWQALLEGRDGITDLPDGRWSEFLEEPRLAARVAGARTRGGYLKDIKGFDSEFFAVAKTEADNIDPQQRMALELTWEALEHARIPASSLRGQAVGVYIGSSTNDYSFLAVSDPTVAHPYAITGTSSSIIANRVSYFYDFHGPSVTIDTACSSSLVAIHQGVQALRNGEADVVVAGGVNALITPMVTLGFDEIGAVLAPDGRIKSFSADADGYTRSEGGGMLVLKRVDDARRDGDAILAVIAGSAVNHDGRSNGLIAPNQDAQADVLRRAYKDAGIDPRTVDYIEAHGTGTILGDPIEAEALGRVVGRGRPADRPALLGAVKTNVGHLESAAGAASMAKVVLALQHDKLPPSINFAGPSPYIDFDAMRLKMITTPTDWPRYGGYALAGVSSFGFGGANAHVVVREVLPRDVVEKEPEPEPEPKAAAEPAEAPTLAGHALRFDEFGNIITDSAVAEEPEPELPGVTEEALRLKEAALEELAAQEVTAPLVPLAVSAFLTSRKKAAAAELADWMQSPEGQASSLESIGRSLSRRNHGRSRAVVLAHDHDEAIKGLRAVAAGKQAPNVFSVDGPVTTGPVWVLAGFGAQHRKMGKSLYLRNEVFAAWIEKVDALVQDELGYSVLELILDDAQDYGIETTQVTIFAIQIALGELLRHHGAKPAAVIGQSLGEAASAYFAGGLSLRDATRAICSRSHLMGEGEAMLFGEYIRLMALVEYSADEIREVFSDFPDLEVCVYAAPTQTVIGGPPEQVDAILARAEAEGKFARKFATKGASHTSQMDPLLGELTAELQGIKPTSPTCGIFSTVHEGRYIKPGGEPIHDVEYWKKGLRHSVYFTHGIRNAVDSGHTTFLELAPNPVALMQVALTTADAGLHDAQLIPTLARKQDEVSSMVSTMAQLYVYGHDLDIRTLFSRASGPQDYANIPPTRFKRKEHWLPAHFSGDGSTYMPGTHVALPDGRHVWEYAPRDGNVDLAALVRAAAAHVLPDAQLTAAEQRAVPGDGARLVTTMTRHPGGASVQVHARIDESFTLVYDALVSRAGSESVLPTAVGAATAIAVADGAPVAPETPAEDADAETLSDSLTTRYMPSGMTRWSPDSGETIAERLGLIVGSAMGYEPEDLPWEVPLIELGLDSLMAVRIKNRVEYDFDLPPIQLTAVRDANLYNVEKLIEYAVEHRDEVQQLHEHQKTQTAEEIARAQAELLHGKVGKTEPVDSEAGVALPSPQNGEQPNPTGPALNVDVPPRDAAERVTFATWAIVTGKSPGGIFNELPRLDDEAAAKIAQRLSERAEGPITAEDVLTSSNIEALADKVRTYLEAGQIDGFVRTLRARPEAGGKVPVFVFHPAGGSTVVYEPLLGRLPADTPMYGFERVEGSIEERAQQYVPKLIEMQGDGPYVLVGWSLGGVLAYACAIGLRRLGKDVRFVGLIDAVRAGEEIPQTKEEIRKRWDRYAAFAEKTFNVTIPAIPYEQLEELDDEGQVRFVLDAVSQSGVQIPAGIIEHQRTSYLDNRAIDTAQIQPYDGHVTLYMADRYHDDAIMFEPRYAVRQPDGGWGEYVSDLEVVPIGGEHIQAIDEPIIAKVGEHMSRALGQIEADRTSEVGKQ

Measurements from “University of Dundee, Small-Polar-MMV Screening Library” (2021), ChEMBL document CHEMBL3988442.

Results are given as percent effect. The controls that fix the scale are not given in the record; negative values are as filed. Compounds were drawn at random from those tested, without regard to their results. Two or more numbers in one place are separate tests of the same structure; such repeats can differ widely. A dash means the value is not listed here; it may have been measured.

A: 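Cell assay of Leishmania donovani living inside macrophages; the read-out is not stated. Compounds at 30 µM. Higher reads as stronger inhibition (inferred: compounds with an IC50 in retests scored well above the rest). Of about 69,000 compounds tested this way, about 1,000 (1.5%) reached 50% or more in at least one test.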
B: 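Histidine-tRNA ligase, Leishmania infantum (UniProt A4I591). Enzyme assay of histidyl-tRNA synthetase; the read-out is not stated. Compounds at 30 µM. Direction is inferred from retests: higher values go with stronger inhibition. The assay is labelled LdHisRS but filed under L. infantum. About 69,000 compounds were tested under these conditions; 0.6% (about 410) showed 50% or more at least once.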
C: 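Polyketide synthase Pks13, Mycobacterium tuberculosis (UniProt I6X8D2). Enzyme assay of the thioesterase domain of polyketide synthase 13; the read-out is not stated. Compounds at 30 µM. Higher reads as stronger inhibition (inferred from which compounds were picked for retests). Of about 67,000 compounds tested this way, about 300 (0.46%) reached 50% or more in at least one test.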

{"smiles": "O=C(NC[C@H]1OC[C@@H](NC2CCOCC2)[C@@H]1O)C1CCCC1", "A": 12.73, "B": 20.27, "C": -30.5}
{"smiles": "Cc1cnc(NC(=O)N2CCC(N3CCCCC3=O)CC2)s1", "A": 6.093, "B": 15.15, "C": -24.05}
{"smiles": "Cc1ccc2nc(C)cc(C(=O)N[C@H]3COC[C@@H]3N3CCOCC3)c2c1", "A": 2.986, "B": 5.263, "C": -14.36}
{"smiles": "COCCNC(=O)Cn1ccc2ccc(F)cc21", "A": 7.389, "B": 14.58, "C": -7.195}
{"smiles": "O=C(NCc1ccccc1CN1CCCCCC1)Nc1nncs1", "A": -11.7, "B": 11.4, "C": 7.794}
{"smiles": "CCN(C)c1ncnc2c1CCN(Cc1ccncc1)CC2.O=C(O)C(F)(F)F.O=C(O)C(F)(F)F.O=C(O)C(F)(F)F", "A": 31.79}
{"smiles": "CNc1ccc(C2CN(c3cc(C)nc(N)n3)CCO2)nc1", "stereo": "stereo unspecified", "A": 34.42, "B": 9.79, "C": 1.036}
{"smiles": "CCNC(=O)NC[C@H]1COCc2nc3cc(OC)ccc3n21", "A": 22.23, "B": 25, "C": -27.55}
{"smiles": "Cc1cc(NC(=O)N2CCN(C)CC2C)n(C(C)(C)C)n1", "stereo": "stereo unspecified", "A": 27.8, "B": 23.29, "C": -37.12}
{"smiles": "CC1COCCN1Cc1nc(-c2ccc(F)cc2)no1", "stereo": "stereo unspecified", "A": 12.83, "B": 12.5, "C": -7.821}
{"smiles": "COc1cccc(CC(=O)NC2CCCc3cn[nH]c32)c1", "stereo": "stereo unspecified", "A": "-3.985 and 9.163", "B": 18.42, "C": -4.72}
{"smiles": "COC(=O)CC1CCCCN1CC(=O)NCCc1ccc(F)cc1", "stereo": "stereo unspecified", "A": 18.05, "B": 17.65, "C": -2.951}
{"smiles": "COc1ccc(SC(C)C(=O)N2CCC(NC(=O)C3CC3)CC2)cc1", "stereo": "stereo unspecified", "A": -5.911, "B": 3.947, "C": -8.903}
{"smiles": "CC(=O)N1CCc2c(nc(N(C)C)nc2NCCc2cccs2)C1", "A": 10.63, "B": 23.08, "C": -140.3}
{"smiles": "O=C(Cn1nc(Br)nc1Br)N1CCCC1", "A": 23.54, "B": 5.747, "C": -12.26}
{"smiles": "O=C(NCc1cccs1)NCC1(O)CCc2ccccc2C1", "stereo": "stereo unspecified", "A": 19.06, "B": 9.402, "C": -30.12}
{"smiles": "CCOc1cc(C)nc(N2CCN(C(=O)C(C)NC(C)=O)CC2)n1", "stereo": "stereo unspecified", "A": 7.92, "B": 18.18, "C": -11.66}
{"smiles": "Cc1nn(C)cc1S(=O)(=O)NCC(c1ccccc1Cl)N1CCCC1", "stereo": "stereo unspecified", "A": 9.025, "B": 2.878, "C": 2.044}
{"smiles": "CC(C)OCCCNC(=O)CN1CCC(N2CCN(C)C2=O)CC1", "A": 6.636, "B": 3.371, "C": -27}
{"smiles": "O=C(CCc1ccsc1)N1CCC(Cc2ccc(CO)cc2)C1", "stereo": "stereo unspecified", "A": -20.39, "B": 12.5, "C": 0.5479}
{"smiles": "Cc1nn(C)c(N(C)C)c1CNCc1ccc(N(C)C)nc1", "A": 4.606, "B": 13.11, "C": -19.84}
{"smiles": "O=C(O)C(F)(F)F.[H][C@@]12C[C@H](C(=O)NC3CC3)CN(Cc3ccc(F)cc3)[C@]1([H])CCO2", "A": -2.358}
{"smiles": "CNCc1cc(F)ccc1Oc1ccc(F)cc1", "A": 15.38, "B": 16.49, "C": 11.95}
{"smiles": "Cc1nn(Cc2ccc(C(=O)NC3CCS(=O)(=O)C3)cc2)c(C)c1Br", "stereo": "stereo unspecified", "A": -17.57, "B": 15.93, "C": 3.821}
{"smiles": "O=C(c1ccno1)N1CCC2(CC1)C(=O)Nc1ccccc12", "A": 3.089, "B": 14.47, "C": 28.02}
{"smiles": "O=C(CCc1cc2n(n1)CCN(Cc1ccncc1)C2)N1CCCC1", "A": -19.74, "B": 15.29, "C": -5.618}
{"smiles": "[H][C@]12CC[C@]([H])(CN(S(=O)(=O)c3cccc(Cl)c3C)C1)N(C)C2=O", "A": 22.08}
{"smiles": "CCc1c(C)nn(C)c1NC(=O)N1CCCOC(Cn2cccn2)C1", "stereo": "stereo unspecified", "A": 7.984, "B": 18.75, "C": -5.612}

Some entries from above, unchanged:

| SMILES | A | B | C |
|---|---|---|---|
| `O=C(CCc1cc2n(n1)CCN(Cc1ccncc1)C2)N1CCCC1` | -19.74 | 15.29 | -5.618 |
| `CNCc1cc(F)ccc1Oc1ccc(F)cc1` | 15.38 | 16.49 | 11.95 |
| `O=C(O)C(F)(F)F.[H][C@@]12C[C@H](C(=O)NC3CC3)CN(Cc3ccc(F)cc3)[C@]1([H])CCO2` | -2.358 | - | - |
| `Cc1nn(Cc2ccc(C(=O)NC3CCS(=O)(=O)C3)cc2)c(C)c1Br` (stereo unspecified) | -17.57 | 15.93 | 3.821 |